Values from PubChem BioAssay AID504808 (Drosophila RNAi Screening Center, 2011)

Screen: 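Genes whose loss lifts activity of an E2F-responsive reporter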 (primary screen)
System: Drosophila S2 cells
Knock-down reagent: long dsRNA against Drosophila genes
Read-out: 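Firefly luciferase driven by E2F sites, normalised to Renilla luciferase on the same minimal promoter, measured by plate reader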
Direction: E2F firefly: higher = more E2F reporter activity; Renilla normaliser: higher = more normaliser reporter signal
Hit rule: 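a knock-down counted as active when the firefly/Renilla E2F signal rose above 50%, a threshold chosen arbitrarily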
The deposit covers about 21,000 reagents; shown is a random part of those with a known target gene and a result. In the full data, 18 (0.084%) are marked active. 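Raw counts without plate normalisation, one of two replicates; the ratio scores behind the calls were not deposited.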 Unmarked entries are inactive. A plus sign joins genes that one reagent is predicted to hit. Reagent sequences are not shown. Not stated in the record: the amount of reagent, the time to read-out.

yellow-d [DRSC04589] scored E2F firefly, rep 1 = 1.06e5; Renilla normaliser, rep 1 = 4719.
GABA-B-R3 (metabotropic GABA-B receptor subtype 3) [DRSC00561] showed E2F firefly, rep 1 = 1.68e5; Renilla normaliser, rep 1 = 6166.
Knock-down of MESR3 (Misexpression suppressor of ras 3) [DRSC02463] gave: E2F firefly, rep 1 = 86343; Renilla normaliser, rep 1 = 4017.
With knock-down of her (hermaphrodite) [DRSC03543], the record shows E2F firefly, rep 1 = 85665; Renilla normaliser, rep 1 = 3748.
For Prosalpha5 (Proteasome alpha5 subunit) [DRSC07514] the deposit lists E2F firefly, rep 1 = 63571; Renilla normaliser, rep 1 = 3549.
CG14072 [DRSC02375] gave E2F firefly, rep 1 = 1.64e5; Renilla normaliser, rep 1 = 5961.
For hid (head involution defective) [DRSC11316], the entry reads E2F firefly, rep 1 = 1.56e5; Renilla normaliser, rep 1 = 8227.
Silencing of CG8677 + CG31626 [DRSC01838] gave: E2F firefly, rep 1 = 92205; Renilla normaliser, rep 1 = 3517.
With knock-down of eIF6 (eukaryotic translation initiation factor 6) [DRSC04674] the results were E2F firefly, rep 1 = 84655; Renilla normaliser, rep 1 = 4315.
With knock-down of CG3841 [DRSC02730] the results were E2F firefly, rep 1 = 1.53e5; Renilla normaliser, rep 1 = 5309.
After knock-down of CG14492 [DRSC06463] the results were E2F firefly, rep 1 = 1.54e5; Renilla normaliser, rep 1 = 5058.
Depletion of Gle1 (Gle1 RNA export mediator) [DRSC06485] resulted in: E2F firefly, rep 1 = 2731; Renilla normaliser, rep 1 = 229.

In a second layout: entries from further up.
gene | amplicon | E2F firefly, rep 1 | Renilla normaliser, rep 1
yellow-d | DRSC04589 | 1.06e5 | 4719
GABA-B-R3 (metabotropic GABA-B receptor subtype 3) | DRSC00561 | 1.68e5 | 6166
MESR3 (Misexpression suppressor of ras 3) | DRSC02463 | 86343 | 4017

Continued.
Cpr72Eb (Cuticular protein 72Eb) [DRSC09870] scored E2F firefly, rep 1 = 1.76e5; Renilla normaliser, rep 1 = 8683.
Silencing of CG3793 [DRSC01982] resulted in: E2F firefly, rep 1 = 84300; Renilla normaliser, rep 1 = 4018.
CG32816 [DRSC17337] scored E2F firefly, rep 1 = 83248; Renilla normaliser, rep 1 = 2488.
After knock-down of lgs (legless) [DRSC17152], the record shows E2F firefly, rep 1 = 1836; Renilla normaliser, rep 1 = 924.
With knock-down of ste24a (prenyl protease type I) [DRSC07314], the screen gave E2F firefly, rep 1 = 73288; Renilla normaliser, rep 1 = 2949.
For CG11178 [DRSC19396], the entry reads E2F firefly, rep 1 = 7693; Renilla normaliser, rep 1 = 776.
Knock-down of Sirup (Starvation-upregulated protein) [DRSC03031] gave: E2F firefly, rep 1 = 1.59e5; Renilla normaliser, rep 1 = 5608.
